# Measured values reported in PubChem BioAssay AID651640 (Broad Institute, 2012).
# Values joined by “and” are separate entries in the source; they are usually repeats but may differ in a detail not shown here. Identical values can stand only once. Screen size: about 350,000 compounds; about 6,000 (1.7%) were called active. This list was built around the results that the source calls inconclusive (neither active nor inactive); the mix of calls is not that of the screen. Rule as the data show it: active = CPE inhibition above about 20% (passing the limit was not always enough); inconclusive = no clear call, values can overlap the other calls; tested in BHK-21 cells. More than one record can exist for a structure, and the calls need not agree.
# Test: protection of cells from dengue 2 killing – plate reader, single concentration, primary screen (AID 651640);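 also: 0% = median of neutral control wells and 100% = median of positive control wells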
# Settings: DENV2-infected cells, cytopathic effect rescue, at 9.99 µM, stronger effect = higher value
row,SMILES,CPE inhibition
1,CCNC(=O)[C@@H]1[C@@H](CO)[C@@H]2Cn3c(ccc(-c4ccncc4)c3=O)[C@@H]2N1Cc1ccccc1,inactive: 1.09%
2,COc1ccc(S(=O)(=O)N(C)C[C@@H]2Oc3ccc(NS(=O)(=O)c4ccccc4)cc3C(=O)N([C@H](C)CO)C[C@H]2C)cc1,active: 133%
3,C[C@H]1c2cccc(O)c2C(O)=C2C(=O)[C@]3(O)C(O)=C(C(N)=O)C(=O)[C@@H](N(C)C)C3[C@@H](O)C21 (some centres not stated),inconclusive: 47.8%
4,CO[C@H]1CN(C)C(=O)c2ccc(NC(=O)c3cc(C)on3)cc2OC[C@H](C)N(C)C[C@@H]1C,inactive: 2.04%
5,CCCNC(=O)[C@H]1[C@H](CO)[C@H]2Cn3c(cccc3=O)[C@H]2N1Cc1ccccc1Cl,active: 140%
6,CCC1CCCCN1C(=O)COC(=O)c1cccs1 (configuration not stated),inconclusive: 21.2%
7,CS(=O)(=O)N1CC2(C1)[C@@H](c1ccccc1)[C@@H](CO)N2CCC(F)(F)F,active: 20.5%
8,CC(C)CNC(=O)CN1C(=O)NC2(CCc3ccccc32)C1=O (configuration not stated),inconclusive: 38.7%
9,CC(=O)Nc1cccc(-c2cc(NC=O)c3ncc(-c4ccc(C(C)=O)cc4)n3c2)c1,active: 34%
10,COc1ccc(-c2csc3nc(C(C)C)oc(=O)c23)cc1OC,inactive: 2.22%
11,Cc1c(C#N)c(O)n(CCO)c(=O)c1N=Nc1ccc(S(N)(=O)=O)cc1,active: 45.2%
12,COc1ccc([C@@H]2[C@@H]3C(=O)N(C(C)(C)C)C(=O)[C@@H]3[C@]3(Cc4ccccc4)C(=O)N(c4cccc(F)c4)C(=O)N23)cc1,inconclusive: 62.2%
13,CCOc1ccccc1NC(=O)CSc1ccc(-c2ccco2)nn1,inconclusive: 25.7%
14,COc1ccc(Cl)cc1NC(=O)C[n+]1ccccc1,inconclusive: 21.9%
15,C/C=C/c1ccc2c(c1)O[C@@H](CN(C)Cc1ccc(C(=O)O)cc1)[C@@H](C)CN([C@@H](C)CO)S2(=O)=O,inconclusive: 27.6%
16,O=C(C[C@@H]1CC[C@@H]2[C@H](COC[C@H](O)CN2C(=O)Nc2ccc(F)cc2)O1)NCCc1ccccc1,inconclusive: 35.8%
17,C[C@@H]1CN([C@H](C)CO)C(=O)c2cccc(NC(=O)C3CCOCC3)c2O[C@H]1CN(C)Cc1ccc(-c2ccccc2)cc1,inconclusive: 32.6%
18,C[C@H]1CN([C@@H](C)CO)C(=O)c2cccc(NC(=O)C3CCCCC3)c2O[C@H]1CN(C)S(=O)(=O)c1ccc(F)cc1,inactive: 0.575%
19,CN(CC(=O)Nc1ccccc1C(F)(F)F)C(=O)CSc1nnnn1C,inactive: 7.51%
20,O=C(Nc1ccccc1)C1=C[C@H](C2CC2)C[C@H](OCCCCO)O1,inactive: -1.97% and active: 24%
21,COc1ccc(N2CCN(C3CCCN(Cc4ccc(F)c(F)c4)C3)CC2)cc1 (configuration not stated),inconclusive: 20.9%
22,CNC[C@H]1Oc2cc(C#Cc3ccc(OC)cc3)ccc2S(=O)(=O)N([C@@H](C)CO)C[C@@H]1C,active: 33.3%
23,COc1cccc(OC)c1OCCN1CCC(C(=O)NC(c2ccccc2)c2ncccc2C)CC1 (configuration not stated),inconclusive: 31.4%
24,O=C(NCCCCNC(=O)c1cccnc1Cl)c1cccnc1Cl,active: 68.7%

row,SMILES,CPE inhibition
1,COc1ccc(NC(=O)Nc2cnccn2)cc1,inconclusive: 27.7%
2,Cc1cc(C)n2c(Nc3c(C)cccc3C)c(CCc3ccccc3)nc2n1,active: 20.8%
3,COCC(=O)N1C[C@@H](C)[C@H](OC)CN(C)C(=O)c2cc(NC(=O)Nc3ccccc3)ccc2OC[C@H]1C,inactive: 1.22%
4,CCOc1ccc(Cl)cc1S(=O)(=O)N1CCC(C(=O)NCc2ccccn2)CC1,inconclusive: 29.4%
5,COc1ccc(Nc2cc(C)nc(N)n2)cc1,inconclusive: 28.1%
6,COc1ccc(CCn2ccc(O)c(Cc3c(F)cccc3Cl)c2=O)cc1OC,inactive: -0.315%
7,CCC(=O)N1C[C@@H]2[C@H](c3ccccc31)[C@H](CO)N2Cc1ccccc1F,inactive: -6.63%
8,CCCC#Cc1ccc([C@H]2[C@H](CO)N3CCCCN(Cc4ccncc4)C[C@@H]23)cc1,inconclusive: 29.5%
9,CC(=O)NC[C@@H]1[C@@H](c2ccc(-c3ccccc3F)cc2)[C@@H](CO)N1C(C)=O,active: 20%
10,COCC(=O)Nc1ccc2c(c1)C(=O)N(C)C[C@@H](OC)[C@H](C)CN(CCc1ccccc1)[C@H](C)CO2,inactive: 14.6%
11,Cc1noc(C)c1NC(=O)N(C)C[C@@H]1Oc2ncc(C#CC(C)C)cc2C(=O)N([C@H](C)CO)C[C@H]1C,inactive: 13%
12,Cc1occc1C(=O)N/N=C/c1cccs1,inconclusive: 25.3%
13,O=C(NC1Cc2ccccc2C1)[C@H]1[C@H](CO)[C@H]2Cn3c(ccc(-c4ccccc4F)c3=O)[C@@H]1N2,inactive: 6.68%
14,COc1ccc(CNC(=O)Nc2ccc3c(c2)c(=O)n(C)n3Cc2cccc(C(F)(F)F)c2)cc1,inconclusive: 41.9%
15,COc1ccccc1CNC(=O)CS(=O)Cc1nc(-c2ccccc2C)oc1C (configuration not stated),inconclusive: 43.4%
16,COc1ccc2c3c([nH]c2c1)[C@H](CO)N(Cc1cccc(F)c1)CC31CCN(Cc2ccccn2)CC1,inactive: 5.05%
17,CN1c2ccc(-c3ccccc3F)cc2[C@H]2[C@H](CCN2C(=O)c2ccccn2)[C@@H]1CO,inconclusive: 66.3%
18,COc1cc(CNC2CCCCCCC2)cc(Cl)c1OCC(N)=O,inconclusive: 31.5%
19,CC(C)NC(=O)Nc1ccc2c(c1)C(=O)N([C@@H](C)CO)C[C@@H](C)[C@@H](CN(C)C)OCCCC[C@@H](C)O2,inactive: 2.35%
20,C[C@H]1CN([C@@H](C)CO)C(=O)c2cc(NC(=O)Nc3ccc(F)cc3)ccc2O[C@H]1CN(C)Cc1ccncc1,inactive: -1.93%
21,CCCCNC(=O)c1ccc2nc(CC)c(N(CCC(C)C)CCN(C)C)n2c1,inconclusive: 30.3%
22,COc1ccc(/C=C/c2nnc(NC(=O)CC(C)C)s2)cc1,inconclusive: 20.9%
23,N#CCCN(C(=O)COC(=O)c1ccc(S(=O)(=O)N2CCOCC2)cc1)c1ccccc1,inactive: 2.08%
